In the supplement of paper PMC4604168 (melanoma cell lines):
The list shows a part of the results. Single values are uncertain, as repeats are few or missing.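 Cells were imaged in 1,536-well plates, and nuclei stained with an antibody against cleaved PARP were counted against all DNA-stained nuclei to give the apoptosis fraction. Screening doses were chosen to leave most cells alive, and resting and induced cleaved-PARP levels differ strongly between cell lines.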

Experiments:
Experiment in all cases: cleaved PARP positive nuclei fraction relative to DMSO control; melanoma cells; higher = more apoptosis
Settings in all cases: library dose: low library concentration; 72 h
MZ2-MEL = system: MZ2-MEL
MeWo = system: MeWo
RPMI7951 = system: RPMI7951
RVH-421 = system: RVH-421
SkMel28 = system: SkMel28
SkMel2 = system: SkMel2
SkMel30 = system: SkMel30
SkMel5 = system: SkMel5
UACC257 = system: UACC257
UACC62 = system: UACC62
WM115 = system: WM115
WM1716 = system: WM1716
WM1745 = system: WM1745
WM3526 = system: WM3526
WM3619 = system: WM3619
WM451Lu = system: WM451Lu

With `CC(C)C[C@H](NC(=O)[C@H](Cc1ccccc1)NC(=O)c1cnccn1)B(O)O` [Bortezomib] + COc1ccc(COc2ccc(Cc3cnc(N)nc3N)cc2OC)cc1 [GW2580] (first compound 0.001 µM, partner dose 1 µM) the “cleaved PARP positive nuclei fraction” value (MZ2-MEL) was 138%, the “cleaved PARP positive nuclei fraction” value (MeWo) was 61.9% and the “cleaved PARP positive nuclei fraction” value (RPMI7951) was 541%. For the same compound, the “cleaved PARP positive nuclei fraction” value (RVH-421) was 79.6%, the “cleaved PARP positive nuclei fraction” value (SkMel28) was 151% and the “cleaved PARP positive nuclei fraction” value (SkMel2) was 110%. For the same compound, the “cleaved PARP positive nuclei fraction” value (SkMel30) was 124%, the “cleaved PARP positive nuclei fraction” value (SkMel5) was 88.1% and the “cleaved PARP positive nuclei fraction” value (UACC257) was 451%. The “cleaved PARP positive nuclei fraction” value (UACC62) was 70.1%, the “cleaved PARP positive nuclei fraction” value (WM115) was 161% and the “cleaved PARP positive nuclei fraction” value (WM1716) was 567%. For the same compound, the “cleaved PARP positive nuclei fraction” value (WM1745) was 123%, the “cleaved PARP positive nuclei fraction” value (WM3526) was 182% and the “cleaved PARP positive nuclei fraction” value (WM3619) was 213%. For the same compound, the “cleaved PARP positive nuclei fraction” value (WM451Lu) was 28.7%.
With `CNC(=O)c1cc(Oc2ccc(NC(=O)Nc3ccc(Cl)c(C(F)(F)F)c3)cc2)ccn1` [sorafenib] + N#Cc1c(O)c2c(-c3ccc(-c4ccccc4O)cc3)csc2[nH]c1=O [A769662] (first compound 0.4 µM, partner dose 2 µM) the “cleaved PARP positive nuclei fraction” value (MZ2-MEL) was 201%, the “cleaved PARP positive nuclei fraction” value (MeWo) was 115% and the “cleaved PARP positive nuclei fraction” value (RPMI7951) was 72.1%. The “cleaved PARP positive nuclei fraction” value (RVH-421) was 60.6%, the “cleaved PARP positive nuclei fraction” value (SkMel28) was 191% and the “cleaved PARP positive nuclei fraction” value (SkMel2) was 40.6%. For the same compound, the “cleaved PARP positive nuclei fraction” value (SkMel30) was 167%, the “cleaved PARP positive nuclei fraction” value (SkMel5) was 78.4% and the “cleaved PARP positive nuclei fraction” value (UACC257) was 132%. The “cleaved PARP positive nuclei fraction” value (UACC62) was 194%, the “cleaved PARP positive nuclei fraction” value (WM115) was 114% and the “cleaved PARP positive nuclei fraction” value (WM1716) was 64.3%. For the same compound, the “cleaved PARP positive nuclei fraction” value (WM1745) was 99.6%, the “cleaved PARP positive nuclei fraction” value (WM3526) was 58.4% and the “cleaved PARP positive nuclei fraction” value (WM3619) was 73.5%. The “cleaved PARP positive nuclei fraction” value (WM451Lu) was 68.9%.
`C[C@@H](Oc1cc(-c2cnn(C3CCNCC3)c2)cnc1N)c1c(Cl)ccc(F)c1Cl` [Crizotinib] + C[C@@H]1CCN(C(=O)CC#N)C[C@@H]1N(C)c1ncnc2[nH]ccc12 [CP690550] (first compound 0.2 µM, partner dose 1 µM) was tested, and the “cleaved PARP positive nuclei fraction” value (MZ2-MEL) was 38.8%, the “cleaved PARP positive nuclei fraction” value (MeWo) was 185% and the “cleaved PARP positive nuclei fraction” value (RPMI7951) was 46.7%. The “cleaved PARP positive nuclei fraction” value (RVH-421) was 124%, the “cleaved PARP positive nuclei fraction” value (SkMel28) was 53.8% and the “cleaved PARP positive nuclei fraction” value (SkMel2) was 141%. For the same compound, the “cleaved PARP positive nuclei fraction” value (SkMel30) was 56.3%, the “cleaved PARP positive nuclei fraction” value (SkMel5) was 75.9% and the “cleaved PARP positive nuclei fraction” value (UACC257) was 44.9%. For the same compound, the “cleaved PARP positive nuclei fraction” value (UACC62) was 140%, the “cleaved PARP positive nuclei fraction” value (WM115) was 39.4% and the “cleaved PARP positive nuclei fraction” value (WM1716) was 43.3%. For the same compound, the “cleaved PARP positive nuclei fraction” value (WM1745) was 91.7%, the “cleaved PARP positive nuclei fraction” value (WM3526) was 58.2% and the “cleaved PARP positive nuclei fraction” value (WM3619) was 81%. The “cleaved PARP positive nuclei fraction” value (WM451Lu) was 56.6%.
For `CS(=O)(=O)CCNCc1ccc(-c2ccc3ncnc(Nc4ccc(OCc5cccc(F)c5)c(Cl)c4)c3c2)o1` [lapatinib] + CN(NC(=O)CC(=O)NN(C)C(=S)c1ccccc1)C(=S)c1ccccc1 [STA4783] (first compound 0.8 µM, partner dose 0.006 µM), the “cleaved PARP positive nuclei fraction” value (MZ2-MEL) was 73.5%, the “cleaved PARP positive nuclei fraction” value (MeWo) was 91.7% and the “cleaved PARP positive nuclei fraction” value (RPMI7951) was 124%. The “cleaved PARP positive nuclei fraction” value (RVH-421) was 83.8%, the “cleaved PARP positive nuclei fraction” value (SkMel28) was 51.2% and the “cleaved PARP positive nuclei fraction” value (SkMel2) was 31%. For the same compound, the “cleaved PARP positive nuclei fraction” value (SkMel30) was 67.1%, the “cleaved PARP positive nuclei fraction” value (SkMel5) was 94.5% and the “cleaved PARP positive nuclei fraction” value (UACC257) was 103%. For the same compound, the “cleaved PARP positive nuclei fraction” value (UACC62) was 135%, the “cleaved PARP positive nuclei fraction” value (WM115) was 104% and the “cleaved PARP positive nuclei fraction” value (WM1716) was 60.6%. The “cleaved PARP positive nuclei fraction” value (WM1745) was 180%, the “cleaved PARP positive nuclei fraction” value (WM3526) was 148% and the “cleaved PARP positive nuclei fraction” value (WM3619) was 159%. The “cleaved PARP positive nuclei fraction” value (WM451Lu) was 121%.
`CCCS(=O)(=O)Nc1ccc(F)c(C(=O)c2c[nH]c3ncc(Cl)cc23)c1F` + N#Cc1c(O)c2c(-c3ccc(-c4ccccc4O)cc3)csc2[nH]c1=O [A769662] (first compound 0.08 µM, partner dose 2 µM) was tested, and the “cleaved PARP positive nuclei fraction” value (MZ2-MEL) was 28.9%, the “cleaved PARP positive nuclei fraction” value (MeWo) was 34.4% and the “cleaved PARP positive nuclei fraction” value (RPMI7951) was 118%. The “cleaved PARP positive nuclei fraction” value (RVH-421) was 225%, the “cleaved PARP positive nuclei fraction” value (SkMel28) was 362% and the “cleaved PARP positive nuclei fraction” value (SkMel2) was 75.9%. For the same compound, the “cleaved PARP positive nuclei fraction” value (SkMel30) was 166%, the “cleaved PARP positive nuclei fraction” value (SkMel5) was 66.2% and the “cleaved PARP positive nuclei fraction” value (UACC257) was 155%. For the same compound, the “cleaved PARP positive nuclei fraction” value (UACC62) was 154%, the “cleaved PARP positive nuclei fraction” value (WM115) was 94.9% and the “cleaved PARP positive nuclei fraction” value (WM1716) was 80.9%. The “cleaved PARP positive nuclei fraction” value (WM1745) was 106%, the “cleaved PARP positive nuclei fraction” value (WM3526) was 89.2% and the “cleaved PARP positive nuclei fraction” value (WM3619) was 86.8%. The “cleaved PARP positive nuclei fraction” value (WM451Lu) was 49%.
`CNC(=O)c1cc(Oc2ccc(NC(=O)Nc3ccc(Cl)c(C(F)(F)F)c3)cc2)ccn1` [sorafenib] + Cn1cc(/C=C2\C(=O)Nc3cccnc32)c2ccccc21 [GW441756] (first compound 0.4 µM, partner dose 0.4 µM) was tested, and the “cleaved PARP positive nuclei fraction” value (MZ2-MEL) was 114%, the “cleaved PARP positive nuclei fraction” value (MeWo) was 33.5% and the “cleaved PARP positive nuclei fraction” value (RPMI7951) was 39.9%. For the same compound, the “cleaved PARP positive nuclei fraction” value (RVH-421) was 86.6%, the “cleaved PARP positive nuclei fraction” value (SkMel28) was 185% and the “cleaved PARP positive nuclei fraction” value (SkMel2) was 57.1%. The “cleaved PARP positive nuclei fraction” value (SkMel30) was 42.1%, the “cleaved PARP positive nuclei fraction” value (SkMel5) was 97.6% and the “cleaved PARP positive nuclei fraction” value (UACC257) was 187%. For the same compound, the “cleaved PARP positive nuclei fraction” value (UACC62) was 1080%, the “cleaved PARP positive nuclei fraction” value (WM115) was 21.5% and the “cleaved PARP positive nuclei fraction” value (WM1716) was 184%. For the same compound, the “cleaved PARP positive nuclei fraction” value (WM1745) was 86.7%, the “cleaved PARP positive nuclei fraction” value (WM3526) was 64.9% and the “cleaved PARP positive nuclei fraction” value (WM3619) was 80.7%. For the same compound, the “cleaved PARP positive nuclei fraction” value (WM451Lu) was 205%.
With `C[C@@H](Oc1cc(-c2cnn(C3CCNCC3)c2)cnc1N)c1c(Cl)ccc(F)c1Cl` [Crizotinib] + CC(C)(C)c1cnc(CSc2cnc(NC(=O)C3CCNCC3)s2)o1 [SNS-032] (first compound 0.2 µM, partner dose 0.01 µM) the “cleaved PARP positive nuclei fraction” value (MZ2-MEL) was 128%, the “cleaved PARP positive nuclei fraction” value (MeWo) was 54% and the “cleaved PARP positive nuclei fraction” value (RPMI7951) was 177%. The “cleaved PARP positive nuclei fraction” value (RVH-421) was 78.9%, the “cleaved PARP positive nuclei fraction” value (SkMel28) was 68.1% and the “cleaved PARP positive nuclei fraction” value (SkMel2) was 125%. For the same compound, the “cleaved PARP positive nuclei fraction” value (SkMel30) was 237%, the “cleaved PARP positive nuclei fraction” value (SkMel5) was 93.7% and the “cleaved PARP positive nuclei fraction” value (UACC257) was 111%. The “cleaved PARP positive nuclei fraction” value (UACC62) was 168%, the “cleaved PARP positive nuclei fraction” value (WM115) was 76.7% and the “cleaved PARP positive nuclei fraction” value (WM1716) was 67.6%. The “cleaved PARP positive nuclei fraction” value (WM1745) was 100%, the “cleaved PARP positive nuclei fraction” value (WM3526) was 54.4% and the “cleaved PARP positive nuclei fraction” value (WM3619) was 94.1%. The “cleaved PARP positive nuclei fraction” value (WM451Lu) was 122%.
In the case of `C[C@@H](Oc1cc(-c2cnn(C3CCNCC3)c2)cnc1N)c1c(Cl)ccc(F)c1Cl` [Crizotinib] + N#Cc1c(O)c2c(-c3ccc(-c4ccccc4O)cc3)csc2[nH]c1=O [A769662] (first compound 0.2 µM, partner dose 2 µM), the “cleaved PARP positive nuclei fraction” value (MZ2-MEL) is reported as 119%, the “cleaved PARP positive nuclei fraction” value (MeWo) is reported as 116% and the “cleaved PARP positive nuclei fraction” value (RPMI7951) is reported as 55.9%. The “cleaved PARP positive nuclei fraction” value (RVH-421) was 222%, the “cleaved PARP positive nuclei fraction” value (SkMel28) was 54.7% and the “cleaved PARP positive nuclei fraction” value (SkMel2) was 96.7%. For the same compound, the “cleaved PARP positive nuclei fraction” value (SkMel30) was 201%, the “cleaved PARP positive nuclei fraction” value (SkMel5) was 73.1% and the “cleaved PARP positive nuclei fraction” value (UACC257) was 66.1%. For the same compound, the “cleaved PARP positive nuclei fraction” value (UACC62) was 61.2%, the “cleaved PARP positive nuclei fraction” value (WM115) was 75% and the “cleaved PARP positive nuclei fraction” value (WM1716) was 57.3%. For the same compound, the “cleaved PARP positive nuclei fraction” value (WM1745) was 90%, the “cleaved PARP positive nuclei fraction” value (WM3526) was 26.9% and the “cleaved PARP positive nuclei fraction” value (WM3619) was 82.2%. For the same compound, the “cleaved PARP positive nuclei fraction” value (WM451Lu) was 20.4%.
`C[C@@H](Oc1cc(-c2cnn(C3CCNCC3)c2)cnc1N)c1c(Cl)ccc(F)c1Cl` [Crizotinib] + O=C1NC(=O)/C(=C/c2ccc(-c3ccc(F)cc3O)o2)S1 [AS252424] (first compound 0.2 µM, partner dose 1 µM) was tested, and the “cleaved PARP positive nuclei fraction” value (MZ2-MEL) was 95.3%, the “cleaved PARP positive nuclei fraction” value (MeWo) was 108% and the “cleaved PARP positive nuclei fraction” value (RPMI7951) was 63.6%. For the same compound, the “cleaved PARP positive nuclei fraction” value (RVH-421) was 64.8%, the “cleaved PARP positive nuclei fraction” value (SkMel28) was 148% and the “cleaved PARP positive nuclei fraction” value (SkMel2) was 98.3%. For the same compound, the “cleaved PARP positive nuclei fraction” value (SkMel30) was 74.8%, the “cleaved PARP positive nuclei fraction” value (SkMel5) was 76.9% and the “cleaved PARP positive nuclei fraction” value (UACC257) was 113%. For the same compound, the “cleaved PARP positive nuclei fraction” value (UACC62) was 52.1%, the “cleaved PARP positive nuclei fraction” value (WM115) was 112% and the “cleaved PARP positive nuclei fraction” value (WM1716) was 80.3%. The “cleaved PARP positive nuclei fraction” value (WM1745) was 81.5%, the “cleaved PARP positive nuclei fraction” value (WM3526) was 73.6% and the “cleaved PARP positive nuclei fraction” value (WM3619) was 111%. The “cleaved PARP positive nuclei fraction” value (WM451Lu) was 64%.
